No constants are given. Whether binding was seen depends on the method and setting. Some results given as binding are weak or reduced against the parent protein; the word gives no strength. Sequences can lack the tags named with a protein.
Biological target: plexinD1 on DP thymocytes (mouse (endogenous in thymocytes)) (UniProt Q3UH93)
Assay: flow cytometry on cells; single cell suspensions of thymocytes (2 x 10^6 total) blocked with 2.4G2 Ab, stained with purified sema3E-Fc (5 μg/ml) for 15 min; bound sema3E-Fc detected with anti-mouse IgG2c-PE; gated on DP, CD4SP, CD8SP and DN; WT against D1ThyCKO thymocytes; only the binder purified

The chains behind the UniProt entries cited, without tags or fusion partners. Residues count along the entry.
UniProt Q3UH93, residues 49-1925: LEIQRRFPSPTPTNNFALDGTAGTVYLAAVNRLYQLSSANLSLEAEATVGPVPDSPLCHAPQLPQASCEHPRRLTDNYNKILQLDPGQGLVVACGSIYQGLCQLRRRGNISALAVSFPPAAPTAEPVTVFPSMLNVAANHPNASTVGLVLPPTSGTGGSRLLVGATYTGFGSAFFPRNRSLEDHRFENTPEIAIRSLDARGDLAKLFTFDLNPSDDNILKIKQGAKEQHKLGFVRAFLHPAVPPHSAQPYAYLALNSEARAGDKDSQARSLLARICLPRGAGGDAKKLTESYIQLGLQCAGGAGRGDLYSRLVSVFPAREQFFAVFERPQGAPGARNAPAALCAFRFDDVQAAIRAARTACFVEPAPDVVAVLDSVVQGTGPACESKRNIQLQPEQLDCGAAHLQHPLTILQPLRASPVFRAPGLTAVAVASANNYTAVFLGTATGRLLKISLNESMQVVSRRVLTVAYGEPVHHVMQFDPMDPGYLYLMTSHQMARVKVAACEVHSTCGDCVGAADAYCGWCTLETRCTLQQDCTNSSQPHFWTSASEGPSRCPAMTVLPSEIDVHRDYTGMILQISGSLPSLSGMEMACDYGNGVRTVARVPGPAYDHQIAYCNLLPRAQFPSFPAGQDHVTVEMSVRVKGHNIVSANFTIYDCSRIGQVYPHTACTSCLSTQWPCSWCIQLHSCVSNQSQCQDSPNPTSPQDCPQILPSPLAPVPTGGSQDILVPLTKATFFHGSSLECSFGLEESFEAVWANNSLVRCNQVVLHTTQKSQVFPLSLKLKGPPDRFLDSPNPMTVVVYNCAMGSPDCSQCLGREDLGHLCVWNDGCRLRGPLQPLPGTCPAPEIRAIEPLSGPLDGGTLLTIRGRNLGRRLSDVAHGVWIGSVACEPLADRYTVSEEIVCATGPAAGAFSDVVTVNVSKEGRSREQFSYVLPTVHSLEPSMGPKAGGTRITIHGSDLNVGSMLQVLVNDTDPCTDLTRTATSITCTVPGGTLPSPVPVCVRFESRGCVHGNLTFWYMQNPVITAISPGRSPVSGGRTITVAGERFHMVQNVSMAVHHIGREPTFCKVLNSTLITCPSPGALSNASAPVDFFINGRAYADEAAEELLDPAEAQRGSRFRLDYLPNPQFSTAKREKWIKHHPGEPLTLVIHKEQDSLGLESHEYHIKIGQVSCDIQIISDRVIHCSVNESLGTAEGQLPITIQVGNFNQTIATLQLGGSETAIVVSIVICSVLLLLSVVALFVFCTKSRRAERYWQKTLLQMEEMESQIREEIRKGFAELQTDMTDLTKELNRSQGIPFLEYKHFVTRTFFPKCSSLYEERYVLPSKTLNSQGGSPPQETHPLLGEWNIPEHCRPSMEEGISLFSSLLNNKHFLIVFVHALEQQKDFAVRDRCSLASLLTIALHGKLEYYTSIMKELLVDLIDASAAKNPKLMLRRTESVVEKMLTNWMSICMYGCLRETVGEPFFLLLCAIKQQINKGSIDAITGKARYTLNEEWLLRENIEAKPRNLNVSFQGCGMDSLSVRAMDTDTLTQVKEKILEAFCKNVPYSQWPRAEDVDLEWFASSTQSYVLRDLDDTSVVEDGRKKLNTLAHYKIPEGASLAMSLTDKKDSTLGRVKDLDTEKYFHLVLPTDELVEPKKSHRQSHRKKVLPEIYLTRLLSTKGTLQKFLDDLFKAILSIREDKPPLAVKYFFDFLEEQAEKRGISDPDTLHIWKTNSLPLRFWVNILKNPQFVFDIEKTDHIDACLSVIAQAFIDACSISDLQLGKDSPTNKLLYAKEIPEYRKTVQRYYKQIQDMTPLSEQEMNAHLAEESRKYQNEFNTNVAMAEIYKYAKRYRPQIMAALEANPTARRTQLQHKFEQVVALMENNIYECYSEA

B1: Sema3E-Fc (Fc fusion, UniProt P70275 26-775)
chain: ANPSYPRLRLSHKELLELNRTSIFQSPLGFLDLHTMLLDEYQERLFVGGRDLVYSLNLERVSDGYREIYWPSTAVKVEECIMKGKDANECANYIRVLHHYNRTHLLTCATGAFDPHCAFIRVGHHSEEPLFHLESHRSERGRGRCPFDPNSSFVSTLVGNELFAGLYSDYWGRDSAIFRSMGKLGHIRTEHDDERLLKEPKFVGSYMIPDNEDRDDNKMYFFFTEKALEAENNAHTIYTRVGRLCVNDMGGQRILVNKWSTFLKARLVCSVPGMNGIDTYFDELEDVFLLPTRDPKNPVIFGLFNTTSNIFRGHAVCVYHMSSIREAFNGPYAHKEGPEYHWSLYEGKVPYPRPGSCASKVNGGKYGTTKDYPDDAIRFARMHPLMYQPIKPVHKKPILVKTDGKYNLRQLAVDRVEAEDGQYDVLFIGTDTGIVLKVITIYNQETEWMEEVILEELQIFKDPAPIISMEISSKRQQLYIGSASAVAQVRFHHCDMYGSACADCCLARDPYCAWDGISCSRYYPTGAHAKRRFRRQDVRHGNAAQQCFGQQFVGDALDRTEERLAYGIESNSTLLECTPRSLQAKVIWFVQKGRDVRKEEVKTDDRVVKMDLGLLFLRVRKSDAGTYFCQTVEHNFVHTVRKITLEVVEEHKVEGMFHKDHEEERHHKMPCPPLSGMSQGTKPWYKEFLQLIGYSNFQRVEEYCEKVWCTDKKRKKLKMSPSKWKYANPQEKRLRSKAEHFRLPRHTLLS
- binding: binds

— PMC3832804
